In patent publication US20220213209A1:
These are yes or no findings as the source states them, for the method shown. Some entries that bind do so weakly or less than the wild type.

Target: macaca mulatta GITR (Macaca mulatta) (UniProt F7DDV8)
Assay: BLI OctetRed 96

binding: binds
B1: BCD166-01-014 (antibody, human IgG1, lambda, V domains shown)
VH: QVQLVQSGGGLVQPGGSLRLSCAASGFTFSYYWMYWVRQAPGKGLEWVSAISWNGGRTYYAESMKGRFTISRDNAQNTLYLQMNSLKSEDTAVYYCAKNRYYSDPNYGMNLWGKGTTVTVSS
VL: QSALTQPASVSGSPGQSITISCTGTSTDIGTYKYISWYQQHPGKAPKLIIYGVSHRPSGVSDRFSGSKSDNTASLTISGLQAEDEADYYCSSYTSSGTVVFGGGTKVTVLG
